# This is one part of the list.
# Experiments:
# Experiment in all cases: glycan array binding signal (z-score within array); higher = stronger binding
# Conditions in all cases: glycan notation: IUPAC condensed, linker removed
# [1] = biological target: Gal(b1-4)GlcNAc(b1-3)Gal(b1-4)[Fuc(a1-3)]GlcNAc(b1-3)Gal(b1-4)[Fuc(a1-3)]GlcNAc
# Outline: (§1)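 From the Consortium for Functional Glycomics database, 3228 arrays were curated, keeping only those whose protein sequence was available. Binding is given as a within-array Z-score averaged across arrays sharing a protein sequence and across linkers. Negative Z-scores can be read as non-binding.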
# [2] = biological target: Gal(b1-4)GlcNAc(b1-3)GalNAc
# Outline: as §1
# [3] = biological target: Gal(b1-4)GlcNAc(b1-3)[Fuc(a1-3)GlcNAc(b1-6)]Gal(b1-4)Glc
# Outline: as §1
# [4] = biological target: Gal(b1-4)GlcNAc(b1-3)[Gal(b1-4)GlcNAc(b1-6)]Gal(b1-4)GlcNAc
# Outline: as §1
# [5] = biological target: Gal(b1-4)GlcNAc(b1-3)[Gal(b1-4)GlcNAc(b1-6)]GalNAc
# Outline: as §1
# [6] = biological target: Gal(b1-4)GlcNAc(b1-3)[GlcNAc(b1-6)]Gal(b1-4)GlcNAc
# Outline: as §1
# [7] = biological target: Gal(b1-4)GlcNAc(b1-6)Gal(b1-4)GlcNAc
# Outline: as §1
# [8] = biological target: Gal(b1-4)GlcNAc(b1-6)GalNAc
# Outline: as §1
# [9] = biological target: Gal(b1-4)GlcNAc(b1-6)[Gal(b1-3)]GalNAc
# Outline: as §1
# [10] = biological target: Gal(b1-4)GlcNAc(b1-6)[Gal(b1-4)GlcNAc(b1-3)]GalNAc
# Outline: as §1
# [11] = biological target: Gal(b1-4)GlcNAc6P
# Outline: as §1
# [12] = biological target: Gal(b1-6)Gal
# Outline: as §1
# [13] = biological target: Gal3S(b1-3)GalNAc
# Outline: as §1
# [14] = biological target: Gal3S(b1-3)GlcNAc
# Outline: as §1
# [15] = biological target: Gal3S(b1-3)[Fuc(a1-4)]GlcNAc
# Outline: as §1
# [16] = biological target: Gal3S(b1-4)Glc
# Outline: as §1
# [17] = biological target: Gal3S(b1-4)Glc6S
# Outline: as §1
# [18] = biological target: Gal3S(b1-4)GlcNAc
# Outline: as §1
# [19] = biological target: Gal3S(b1-4)GlcNAc6S
# Outline: as §1
# [20] = biological target: Gal3S(b1-4)[Fuc(a1-3)]Glc
# Outline: as §1
# [21] = biological target: Gal3S(b1-4)[Fuc(a1-3)]Glc6S
# Outline: as §1
# [22] = biological target: Gal3S(b1-4)[Fuc(a1-3)]GlcNAc
# Outline: as §1
# [23] = biological target: Gal3S(b1-4)[Fuc(a1-3)]GlcNAc6S
# Outline: as §1
# [24] = biological target: Gal3S4S(b1-4)GlcNAc
# Outline: as §1
# [25] = biological target: Gal3S6S(b1-4)GlcNAc
# Outline: as §1
# [26] = biological target: Gal3S6S(b1-4)GlcNAc6S
# Outline: as §1
# [27] = biological target: Gal4S(b1-4)GlcNAc
# Outline: as §1
# [28] = biological target: Gal4S6S(b1-4)GlcNAc
# Outline: as §1
# [29] = biological target: Gal6P(b1-4)GlcNAc
# Outline: as §1
# [30] = biological target: Gal6S(b1-3)GlcNAc
# Outline: as §1
# [31] = biological target: Gal6S(b1-3)GlcNAc6S
# Outline: as §1
# [32] = biological target: Gal6S(b1-4)Glc
# Outline: as §1
# [33] = biological target: Gal6S(b1-4)Glc6S
# Outline: as §1
# [34] = biological target: Gal6S(b1-4)GlcNAc
# Outline: as §1
# [35] = biological target: Gal6S(b1-4)GlcNAc6S
# Outline: as §1
# [36] = biological target: GalNAc(a1-3)Gal
# Outline: as §1
# [37] = biological target: GalNAc(a1-3)GalNAc
# Outline: as §1
# [38] = biological target: GalNAc(a1-3)GalNAc(b1-3)Gal(a1-4)Gal(b1-4)Glc
# Outline: as §1
# [39] = biological target: GalNAc(a1-3)GalNAc(b1-3)Gal(a1-4)Gal(b1-4)GlcNAc
# Outline: as §1
# [40] = biological target: GalNAc(b1-3)Gal
# Outline: as §1
# [41] = biological target: GalNAc(b1-3)Gal(a1-4)Gal(b1-4)GlcNAc
# Outline: as §1
# [42] = biological target: GalNAc(b1-3)Gal(a1-4)Gal(b1-4)GlcNAc(b1-3)Gal(b1-4)Glc
# Outline: as §1
# [43] = biological target: GalNAc(b1-3)Gal(a1-6)Gal(b1-4)Glc
# Outline: as §1
# [44] = biological target: GalNAc(b1-3)GalNAc
# Outline: as §1
# [45] = biological target: GalNAc(b1-3)GlcNAc
# Outline: as §1
# [46] = biological target: GalNAc(b1-4)Gal(b1-4)Glc
# Outline: as §1
# [47] = biological target: GalNAc(b1-4)GlcNAc
# Outline: as §1
# [48] = biological target: GalNAc(b1-4)GlcNAc(b1-2)Man
# Outline: as §1
# [49] = biological target: GalNAc(b1-4)GlcNAc(b1-2)Man(a1-3)[GalNAc(b1-4)GlcNAc(b1-2)Man(a1-6)]Man(b1-4)GlcNAc(b1-4)GlcNAc
# Outline: as §1
# [50] = biological target: GalNAc(b1-4)GlcNAc(b1-3)GalNAc(b1-4)GlcNAc
# Outline: as §1
# [51] = biological target: GalNAc(b1-4)GlcNAc6S
# Outline: as §1
# [52] = biological target: GalNAc(b1-6)GalNAc
# Outline: as §1
binder,measurement,setting,value
KILRGVCKKIMRTFLRRISKDILTGKK [NK2 (Sus scrofa)],glycan array binding signal (z-score),[1],-0.231
same,glycan array binding signal (z-score),[2],-0.217
same,glycan array binding signal (z-score),[3],0.294
same,glycan array binding signal (z-score),[4],-0.49
same,glycan array binding signal (z-score),[5],-0.461
same,glycan array binding signal (z-score),[6],-0.426
same,glycan array binding signal (z-score),[7],0.164
same,glycan array binding signal (z-score),[8],0.535
same,glycan array binding signal (z-score),[9],-0.522
same,glycan array binding signal (z-score),[10],0.025
same,glycan array binding signal (z-score),[11],0.037
same,glycan array binding signal (z-score),[12],0.626
same,glycan array binding signal (z-score),[13],0.183
same,glycan array binding signal (z-score),[14],0.725
same,glycan array binding signal (z-score),[15],0.208
same,glycan array binding signal (z-score),[16],-0.124
same,glycan array binding signal (z-score),[17],1.67
same,glycan array binding signal (z-score),[18],1.36
same,glycan array binding signal (z-score),[19],4.29
same,glycan array binding signal (z-score),[20],-0.169
same,glycan array binding signal (z-score),[21],1.45
same,glycan array binding signal (z-score),[22],1.2
same,glycan array binding signal (z-score),[23],1.59
same,glycan array binding signal (z-score),[24],2.81
same,glycan array binding signal (z-score),[25],2.92
same,glycan array binding signal (z-score),[26],3.98
same,glycan array binding signal (z-score),[27],0.794
same,glycan array binding signal (z-score),[28],2.26
same,glycan array binding signal (z-score),[29],-1.5
same,glycan array binding signal (z-score),[30],1.05
same,glycan array binding signal (z-score),[31],3.16
same,glycan array binding signal (z-score),[32],-0.196
same,glycan array binding signal (z-score),[33],1.56
same,glycan array binding signal (z-score),[34],1.22
same,glycan array binding signal (z-score),[35],2.85
same,glycan array binding signal (z-score),[36],-0.277
same,glycan array binding signal (z-score),[37],-0.861
same,glycan array binding signal (z-score),[38],-0.58
same,glycan array binding signal (z-score),[39],-0.123
same,glycan array binding signal (z-score),[40],-0.003
same,glycan array binding signal (z-score),[41],-0.855
same,glycan array binding signal (z-score),[42],0.87
same,glycan array binding signal (z-score),[43],-0.616
same,glycan array binding signal (z-score),[44],0.164
same,glycan array binding signal (z-score),[45],-0.451
same,glycan array binding signal (z-score),[46],0.603
same,glycan array binding signal (z-score),[47],-0.865
same,glycan array binding signal (z-score),[48],0.202
same,glycan array binding signal (z-score),[49],1.16
same,glycan array binding signal (z-score),[50],-0.686
same,glycan array binding signal (z-score),[51],0.536
same,glycan array binding signal (z-score),[52],-0.797

# Reformatted tab-delimited: entries from further up
binder	measurement	setting	value
KILRGVCKKIMRTFLRRISKDILTGKK [NK2 (Sus scrofa)]	glycan array binding signal (z-score)	[37]	-0.861
same	glycan array binding signal (z-score)	[38]	-0.58
same	glycan array binding signal (z-score)	[39]	-0.123
